Assay results from article PMC12431657, “Discovery and mechanistic insights of dibenzoylmethane as a broad spectrum inhibitor of coronavirus” (PLOS Pathogens, 2025).
Counter-ions that a name gives are not always drawn. Like-named read-outs stand apart in the source and are kept apart here. The whole screen tested about 3,300 compounds, of which about 95 (3%) showed an effect of 50% or more. The list shows a part of the results. Peptide text beside a SMILES is read from it.

Test system: HCoV-229E
Design: species or system Huh-7; HTS, protection from HCoV-229E induced cell death, luminescent cell viability (CellCounting-Lite 2.0), inhibition rate
Conditions: 24 h post infection, 1 h compound pre-incubation, 10 µM, inhibitor

| Structure (SMILES) | 229E Inhibition rate | 229E Inhibition rate (229E Inhibition rate, 24 h) |
| --- | --- | --- |
| O=C(O)CCc1ccc(O)cc1O [3-(2,4-Dihydroxyphenyl)propanoic acid] | 0% | – |
| C/C=C(/C)C(=O)O[C@@H]1[C@H](OC(=O)CC(C)C)c2c(ccc3ccc(=O)oc23)OC1(C)C [Praeruptorin C] | 32.9% | – |
| COc1ccc(-c2coc3cc(O)c(OC)c(O)c3c2=O)cc1 [Irisolidone] | 0% | – |
| CC(=O)O[C@@H]1CC[C@@]2(C)[C@@H](CC[C@]3(C)[C@@H]2[C@H](O)C=C2[C@@H]4[C@@H](C)[C@H](C)CC[C@]4(C)CC[C@]23C)[C@@]1(C)C(=O)O [3-O-Acetyl-11-hydroxy-beta-boswellic acid] | 0% | – |
| C[C@@H]1O[C@@H](O[C@H]2[C@H](Oc3cc(O)c4c(=O)cc(-c5ccc(O)cc5)oc4c3)O[C@H](CO[C@@H]3O[C@H](CO)[C@@H](O)[C@H](O)[C@H]3O)[C@@H](O)[C@@H]2O)[C@H](O)[C@H](O)[C@H]1O [Apigenin-7-O-(2G-rhamnosyl)gentiobioside] | 22.2% | – |
| COc1cc(O)c(CC=C(C)C)c2c1C(=O)CC(c1ccc(O)cc1)O2 (centres unmarked) [Isoxanthohumol] | 23.6% | – |
| CC(=O)CCC(=O)O [Levulinic acid] | 11.4% | – |
| Cn1c[n+]([C@@H]2O[C@H](CO)[C@@H](O)[C@H]2O)c2nc(N)[nH]c(=O)c21 [7-Methylguanosine] | 7.1% | – |
| C[C@@H]1CC[C@]2(C(=O)O)CC[C@]3(C)C(=CC[C@@H]4[C@@]5(C)CC[C@H](O)[C@@](C)(CO)[C@@H]5CC[C@]43C)[C@@H]2[C@]1(C)O [Rotundic acid] | 4.8% | – |
| CC(C)C[C@H](N)C(=O)N[C@@H](Cc1ccccc1)C(=O)O [Leucyl-phenylalanine] (H-Leu-Phe-OH) | 8.1% | – |
| CCCCCCCC/C=C\CCCCCCCC(=O)O[C@H]1CC[C@@]2(C)C(=CC[C@H]3[C@@H]4CC[C@H]([C@H](C)CCCC(C)C)[C@@]4(C)CC[C@@H]32)C1 [Cholesteryl oleate] | 8.1% | – |
| COc1cc(O)cc(CCc2cccc(O)c2)c1 [Batatasin III] | 12.4% | – |
| N[C@@H](CCSC[C@H](N)C(=O)O)C(=O)O [L-Cystathionine] | 6.6% | – |
| O=C(O)[C@@H](O)Cc1ccccc1 [(S)-2-Hydroxy-3-phenylpropanoic acid] | 0% | – |
| CSC[C@H](N)C(=O)O [S-Methyl-L-cysteine] | 14% | – |
| O=C1N[C@@H](Cc2c[nH]c3ccccc23)C(=O)N2CCC[C@@H]12 [Brevianamide F] | 20.1% | – |
| COc1cc2c(cc1O)CC[n+]1cc3c4c(ccc3cc1-2)OCO4 [Groenlandicine] | 8.1% | – |
| COc1ccc(-c2coc3cc(O[C@@H]4O[C@H](CO)[C@@H](O)[C@H](O)[C@H]4O)ccc3c2=O)cc1 [Ononin] | 10.6% | – |
| OC1C[C@H]2CC[C@@H](C1)N2 (some centres unmarked) [Nortropine] | 11.4% | – |
| C[C@H]1COC2=C1C(=O)C(=O)c1c2ccc2c1CCCC2(C)C [Cryptotanshinone] | 14.8% | – |

Fetched by structure from the entries so far, 2 records:

| Structure (SMILES) | 229E Inhibition rate | 229E Inhibition rate (229E Inhibition rate, 24 h) |
| --- | --- | --- |
| CC(=O)O[C@@H]1CC[C@@]2(C)[C@@H](CC[C@]3(C)[C@@H]2[C@H](O)C=C2[C@@H]4[C@@H](C)[C@H](C)CC[C@]4(C)CC[C@]23C)[C@@]1(C)C(=O)O [3-O-Acetyl-11-hydroxy-beta-boswellic acid] | 0% | – |
| CSC[C@H](N)C(=O)O [S-Methyl-L-cysteine] | 14% | – |

(continued)

| Structure (SMILES) | 229E Inhibition rate | 229E Inhibition rate (229E Inhibition rate, 24 h) |
| --- | --- | --- |
| C=C1C[C@@]23CC[C@H]4[C@@](C)(CCC[C@@]4(C)C(=O)O[C@@H]4O[C@H](CO)[C@@H](O)[C@H](O)[C@H]4O)[C@@H]2CC[C@]1(O[C@@H]1O[C@H](CO)[C@@H](O)[C@H](O)[C@H]1O[C@@H]1O[C@H](CO)[C@@H](O)[C@H](O)[C@H]1O)C3 [Stevioside] | 0% | – |
| COc1cc(/C=C/C(=O)O[C@H]2[C@H](O)[C@@H](CO)O[C@@]2(CO)O[C@H]2O[C@H](COC(=O)c3ccc(O)cc3)[C@@H](O)[C@H](O)[C@H]2O)cc(OC)c1O [Tenuifoliside B] | 0% | – |
| CC(=O)OC[C@H]1O[C@@H](O[C@@H]2[C@@H](O)[C@H](O[C@@H]3[C@H](O)C(C)(C)C[C@H]4C5=CC[C@@H]6[C@@]7(C)CC[C@H](O[C@@H]8O[C@H](C(=O)O)[C@@H](O)[C@H](O)[C@H]8O[C@@H]8O[C@H](CO)[C@H](O)[C@H](O)[C@H]8O[C@@H]8O[C@H](CO)[C@@H](O)[C@H](O)[C@H]8O)[C@](C)(CO)[C@@H]7CC[C@@]6(C)[C@]5(C)CC[C@@]34C)OC[C@@H]2O)[C@H](OC(C)=O)[C@@H](OC(C)=O)[C@@H]1OC(C)=O [Soyasaponin Ab] | 46.7% | – |
| O[C@H]1[C@H]2c3cc4c(cc3CN3CC[C@H](C[C@@H]1O)[C@H]23)OCO4 [Dihydrolycorine] | 10.9% | – |
| CN(C)C [Trimethylammonium chloride] | 6% | – |
| C[C@@]12C[C@@]3(O)O[C@@H](O1)[C@]1(COC(=O)c4ccccc4)[C@@H]3C[C@]12O[C@@H]1O[C@H](COC(=O)c2cc(O)c(O)c(O)c2)[C@@H](O)[C@H](O)[C@H]1O [Galloylpaeoniflorin] | 1.9% | – |
| CCc1cnccn1 [2-Ethylpyrazine] | 16.9% | – |
| COc1cc(O)ccc1CCC(=O)c1ccc(O)cc1 [Loureirin C] | 24.7% | – |
| CN1Cc2c(ccc3c2OCO3)[C@@]2(C)[C@@H](O)Cc3cc4c(cc3[C@@H]12)OCO4 [Corynoline] | 17.1% | – |
| COc1cc(O)c(C(=O)/C=C/c2ccccc2)c(O)c1 [Pinostrobin chalcone] | 0% | – |
| CC(=O)OC1CC(C)CCC1C(C)C (centres unmarked) [Menthyl acetate] | 23.3% | – |
| OC[C@H]1O[C@@H]2O[C@H]3[C@H](O)[C@@H](O)[C@@H](O[C@H]4[C@H](O)[C@@H](O)[C@@H](O[C@H]5[C@H](O)[C@@H](O)[C@@H](O[C@H]6[C@H](O)[C@@H](O)[C@@H](O[C@H]7[C@H](O)[C@@H](O)[C@@H](O[C@H]8[C@H](O)[C@@H](O)[C@@H](O[C@H]9[C@H](O)[C@@H](O)[C@@H](O[C@H]1[C@H](O)[C@H]2O)O[C@@H]9CO)O[C@@H]8CO)O[C@@H]7CO)O[C@@H]6CO)O[C@@H]5CO)O[C@@H]4CO)O[C@@H]3CO [γ-Cyclodextrin] | 21.1% | – |
| COC(=O)c1ccc(OC)cc1 [Methyl anisate] | 12.5% | – |
| COc1ccc2ccc(=O)oc2c1CC(=O)C(C)C [Isomerazin] | 17.3% | – |
| CC[C@H](CC[C@@H](C)[C@H]1CC[C@H]2[C@@H]3CC=C4C[C@@H](O)CC[C@]4(C)[C@H]3CC[C@]12C)C(C)C [Beta-Sitosterol (purity>98%)] | – | 23.1% |
| O=C(O)CCc1c[nH]c2ccccc12 [3-Indolepropionic acid] | 23.3% | – |
| N#Cc1cn([C@@H]2O[C@H](CO)[C@@H](O)[C@H]2O)c2ncnc(N)c12 [Toyocamycin] | 15.3% | – |
| CCCCCC/C=C\CCCCCCCCCCCC(=O)O [Paullinic acid] | 40% | – |
| CC1=CC(=O)C(C(C)C)CC1 (centres unmarked) [Piperitone] | 19.5% | – |
| CCCCCCCCCCCCCCCC(=O)OCC [Ethyl palmitate] | 17.7% | – |

| Structure (SMILES) | 229E Inhibition rate | 229E Inhibition rate (229E Inhibition rate, 24 h) |
| --- | --- | --- |
| OC[C@@H](O)[C@H](O)[C@@H](O)CO [Xylitol] | 29.9% | – |
| COc1ccc(/C=C/C(=O)c2c(O)cc(O[C@@H]3O[C@H](CO[C@@H]4O[C@@H](C)[C@H](O)[C@@H](O)[C@H]4O)[C@@H](O)[C@H](O)[C@H]3O)cc2OC)cc1O [Hesperidin methylchalcone] | 36.6% | – |
| CCCCCC1CCCC(=O)O1 (centres unmarked) [δ-Decalactone] | 16.6% | – |
| O=C1CC[C@H](NC(=O)Cc2ccccc2)C(=O)N1 [Antineoplaston A10] | 7.8% | – |
| COc1cccc(O)c1-c1cc(=O)c2c(O)c(OC)c(OC)c(OC)c2o1 [Skullcapflavone II] | 14.2% | – |
| O=C(O)C(=O)c1ccccc1 [Phenylglyoxylic acid] | 0% | – |
| COc1cc(/C=C/C(=O)N2CCC=CC2=O)cc(OC)c1OC [Piperlongumine] | 3.4% | – |
| Cc1ncc([N+](=O)[O-])n1CC(O)CCl (centres unmarked) [Ornidazole] | 23.7% | – |
| CC(C)c1cc2c(c(O)c1O)[C@@]13CCCC(C)(C)[C@@H]1[C@H](OC3=O)[C@H]2O [Rosmanol] | 0% | – |
| C[C@@H]1CC[C@]2(C(=O)O)CC[C@]3(C)C(=CC[C@@H]4[C@@]5(C)CC[C@H](O)C(C)(C)[C@@H]5CC[C@]43C)[C@@H]2[C@]1(C)O [Pomolic acid] | 5.3% | – |
| NC(C(=O)O)C(=O)O [Aminomalonic acid] | 7.3% | – |
| COc1cc([C@H]2c3cc(O)c(OC)cc3C[C@@H](CO)[C@@H]2CO)ccc1O [(+)-Isolariciresinol] | 0% | – |
| N=C(N)N [Guanidine (hydrochloride)] | 9% | – |
| CCCCCC/C=C\CCCCCCCc1cccc(O)c1C(=O)O [Ginkgolic Acid] | 13.6% | – |
| O=C1Cc2ccccc2N1 [Oxindole] | 15.9% | – |
| Cn1cncc1CCN [3-Methylhistamine (dihydrochloride)] | 13.5% | – |
| O=C(O)CCC(=O)O [Succinic acid] | – | 11.1% |
| C=C1C[C@@]23CC[C@H]4[C@@](C)(CCC[C@@]4(C)C(=O)O[C@@H]4O[C@H](CO)[C@@H](O)[C@H](O)[C@H]4O)[C@@H]2CC[C@]1(O[C@@H]1O[C@H](CO)[C@@H](O)[C@H](O)[C@H]1O[C@@H]1O[C@H](CO)[C@@H](O)[C@H](O[C@@H]2O[C@H](CO)[C@@H](O)[C@H](O)[C@H]2O)[C@H]1O)C3 [Rebaudioside A] | 11.5% | – |
| O=C(O)/C=C\c1ccc2occc2c1O[C@@H]1O[C@H](CO)[C@@H](O)[C@H](O)[C@H]1O [Isopsoralenoside] | 15.3% | – |

By substructure: the compounds so far with nitrogen in an aromatic ring

| Structure (SMILES) | 229E Inhibition rate | 229E Inhibition rate (229E Inhibition rate, 24 h) |
| --- | --- | --- |
| Cn1c[n+]([C@@H]2O[C@H](CO)[C@@H](O)[C@H]2O)c2nc(N)[nH]c(=O)c21 [7-Methylguanosine] | 7.1% | – |
| O=C1N[C@@H](Cc2c[nH]c3ccccc23)C(=O)N2CCC[C@@H]12 [Brevianamide F] | 20.1% | – |
| COc1cc2c(cc1O)CC[n+]1cc3c4c(ccc3cc1-2)OCO4 [Groenlandicine] | 8.1% | – |
| CCc1cnccn1 [2-Ethylpyrazine] | 16.9% | – |
| O=C(O)CCc1c[nH]c2ccccc12 [3-Indolepropionic acid] | 23.3% | – |
| N#Cc1cn([C@@H]2O[C@H](CO)[C@@H](O)[C@H]2O)c2ncnc(N)c12 [Toyocamycin] | 15.3% | – |
| Cc1ncc([N+](=O)[O-])n1CC(O)CCl (centres unmarked) [Ornidazole] | 23.7% | – |
| Cn1cncc1CCN [3-Methylhistamine (dihydrochloride)] | 13.5% | – |
